Paper doi:10.1101/751974
Results are given in words; binding and its absence hold for the method and conditions named. In cells and extracts the contact can be indirect. These calls come from enrichment with a bait or labelling near it, and not all partners need be listed. For part of these data: Tags and fused reporters may be left off the sequences shown.

By UniProt entry, the sequences of proteins in these tests, tags left out.
UniProt P27694: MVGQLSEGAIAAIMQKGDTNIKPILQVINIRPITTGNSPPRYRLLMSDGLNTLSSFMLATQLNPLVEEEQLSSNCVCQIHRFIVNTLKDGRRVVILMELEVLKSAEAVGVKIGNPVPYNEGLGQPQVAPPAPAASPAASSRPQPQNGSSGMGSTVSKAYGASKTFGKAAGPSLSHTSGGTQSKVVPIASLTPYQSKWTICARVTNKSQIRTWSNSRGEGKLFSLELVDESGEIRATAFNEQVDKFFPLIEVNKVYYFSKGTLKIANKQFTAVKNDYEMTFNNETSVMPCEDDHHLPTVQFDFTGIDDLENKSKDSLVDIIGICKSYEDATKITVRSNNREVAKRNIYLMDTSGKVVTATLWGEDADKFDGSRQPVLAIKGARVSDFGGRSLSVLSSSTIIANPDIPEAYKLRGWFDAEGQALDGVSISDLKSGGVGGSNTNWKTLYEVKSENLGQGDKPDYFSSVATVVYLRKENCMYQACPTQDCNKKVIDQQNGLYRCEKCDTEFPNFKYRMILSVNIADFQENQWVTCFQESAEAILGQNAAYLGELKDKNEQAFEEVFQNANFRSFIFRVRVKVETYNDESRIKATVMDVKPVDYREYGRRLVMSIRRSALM
UniProt P15927: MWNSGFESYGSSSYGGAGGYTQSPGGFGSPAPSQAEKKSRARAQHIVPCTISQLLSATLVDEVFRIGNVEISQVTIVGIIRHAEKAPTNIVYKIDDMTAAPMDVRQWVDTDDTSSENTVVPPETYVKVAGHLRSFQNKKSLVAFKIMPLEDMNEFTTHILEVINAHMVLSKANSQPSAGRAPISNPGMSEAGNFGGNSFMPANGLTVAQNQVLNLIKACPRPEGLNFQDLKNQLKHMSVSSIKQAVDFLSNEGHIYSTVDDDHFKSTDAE

How the values were obtained:
BirA*-MCM8IP (human) = molecular target: T1, BirA*-MCM8IP (human) (UniProt Q8N3J3); test: proximity labelling
T1 sequence: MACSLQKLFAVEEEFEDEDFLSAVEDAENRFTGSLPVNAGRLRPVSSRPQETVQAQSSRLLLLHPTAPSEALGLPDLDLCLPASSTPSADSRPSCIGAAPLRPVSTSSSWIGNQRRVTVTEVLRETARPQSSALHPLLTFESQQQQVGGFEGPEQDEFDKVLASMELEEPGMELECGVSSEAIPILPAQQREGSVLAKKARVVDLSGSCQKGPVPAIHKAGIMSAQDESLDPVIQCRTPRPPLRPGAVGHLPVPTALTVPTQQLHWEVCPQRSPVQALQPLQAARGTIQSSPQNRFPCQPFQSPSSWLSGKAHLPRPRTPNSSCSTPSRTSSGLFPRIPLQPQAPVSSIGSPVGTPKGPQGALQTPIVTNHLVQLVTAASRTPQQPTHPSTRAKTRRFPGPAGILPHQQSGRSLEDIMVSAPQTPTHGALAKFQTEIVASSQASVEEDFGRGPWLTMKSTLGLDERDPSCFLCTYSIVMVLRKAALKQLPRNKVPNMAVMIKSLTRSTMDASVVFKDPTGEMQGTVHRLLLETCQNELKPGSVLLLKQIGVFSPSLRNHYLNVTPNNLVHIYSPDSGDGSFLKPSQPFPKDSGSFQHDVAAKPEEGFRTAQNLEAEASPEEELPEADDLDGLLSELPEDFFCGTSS

MCM8IP-BirA* (human) = molecular target: T2, MCM8IP-BirA* (human) (UniProt Q8N3J3); test: proximity labelling
T2 sequence: T1 sequence

MCM8IP-HA (human) = molecular target: T3, MCM8IP-HA (human) (UniProt Q8N3J3); test: affinity purification with mass spectrometry
T3 sequence: T1 sequence

Measured: binding

RPA1, endogenous (from UniProt P27694 1-616)
binds: all assays above

RPA2, endogenous (from UniProt P15927 1-270)
binds: all assays above
